Measured values: the supplement of paper PMC10849652
The list shows a part of the results.

Chains of the proteins cited; added tags and fusions are not shown. Lines headed by an entry give the natural chain unless they say otherwise; changes in a name come on top.
UniProt O75298: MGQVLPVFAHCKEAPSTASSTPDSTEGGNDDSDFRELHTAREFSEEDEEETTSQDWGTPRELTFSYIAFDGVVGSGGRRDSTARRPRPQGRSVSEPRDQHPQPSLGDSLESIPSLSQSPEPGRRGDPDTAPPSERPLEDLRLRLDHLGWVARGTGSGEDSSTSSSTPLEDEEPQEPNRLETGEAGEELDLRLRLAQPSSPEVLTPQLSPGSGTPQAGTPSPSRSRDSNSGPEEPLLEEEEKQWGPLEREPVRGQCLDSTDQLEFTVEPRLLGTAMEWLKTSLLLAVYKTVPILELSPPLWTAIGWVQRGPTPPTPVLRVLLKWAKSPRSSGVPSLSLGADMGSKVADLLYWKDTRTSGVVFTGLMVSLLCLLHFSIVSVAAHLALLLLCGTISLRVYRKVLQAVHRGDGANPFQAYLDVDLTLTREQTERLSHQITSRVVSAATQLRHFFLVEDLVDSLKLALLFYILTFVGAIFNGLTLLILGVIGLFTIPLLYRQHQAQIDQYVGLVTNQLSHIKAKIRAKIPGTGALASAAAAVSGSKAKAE
UniProt Q9H446: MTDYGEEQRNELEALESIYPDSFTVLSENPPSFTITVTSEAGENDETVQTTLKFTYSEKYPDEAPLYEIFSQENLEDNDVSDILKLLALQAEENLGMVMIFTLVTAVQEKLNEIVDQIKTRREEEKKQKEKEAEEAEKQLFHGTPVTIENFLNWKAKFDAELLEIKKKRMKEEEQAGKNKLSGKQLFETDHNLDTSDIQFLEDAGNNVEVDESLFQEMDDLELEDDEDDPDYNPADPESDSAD
UniProt Q9Y224: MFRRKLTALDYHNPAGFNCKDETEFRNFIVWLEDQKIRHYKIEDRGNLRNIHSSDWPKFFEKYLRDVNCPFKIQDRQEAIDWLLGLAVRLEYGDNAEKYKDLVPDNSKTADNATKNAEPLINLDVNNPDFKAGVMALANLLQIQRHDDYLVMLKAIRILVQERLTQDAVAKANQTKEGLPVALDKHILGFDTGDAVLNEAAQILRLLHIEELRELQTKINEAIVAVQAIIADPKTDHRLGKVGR
UniProt O14828: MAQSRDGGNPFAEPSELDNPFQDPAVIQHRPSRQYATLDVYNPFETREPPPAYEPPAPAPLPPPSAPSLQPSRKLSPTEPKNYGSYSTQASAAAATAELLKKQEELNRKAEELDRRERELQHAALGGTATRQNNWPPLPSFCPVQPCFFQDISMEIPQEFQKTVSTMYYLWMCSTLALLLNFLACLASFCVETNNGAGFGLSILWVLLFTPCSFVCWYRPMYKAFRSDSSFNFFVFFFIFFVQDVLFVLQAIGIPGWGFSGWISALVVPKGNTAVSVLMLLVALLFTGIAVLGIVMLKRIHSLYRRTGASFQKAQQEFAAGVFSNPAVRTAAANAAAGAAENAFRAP
UniProt O75446: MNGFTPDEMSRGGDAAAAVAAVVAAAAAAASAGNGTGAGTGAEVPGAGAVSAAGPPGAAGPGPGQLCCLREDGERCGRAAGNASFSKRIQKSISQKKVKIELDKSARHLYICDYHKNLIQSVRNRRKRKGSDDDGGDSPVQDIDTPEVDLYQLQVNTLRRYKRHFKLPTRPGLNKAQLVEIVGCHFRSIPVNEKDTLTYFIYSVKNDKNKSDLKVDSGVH
UniProt Q9Y3A5: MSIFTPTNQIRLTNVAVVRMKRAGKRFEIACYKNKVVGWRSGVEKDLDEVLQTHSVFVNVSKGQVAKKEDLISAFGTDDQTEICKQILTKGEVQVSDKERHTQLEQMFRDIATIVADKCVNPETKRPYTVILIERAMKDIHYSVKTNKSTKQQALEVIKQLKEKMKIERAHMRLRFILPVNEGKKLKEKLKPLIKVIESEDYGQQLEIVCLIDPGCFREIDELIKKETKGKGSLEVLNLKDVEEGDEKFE
UniProt Q9NPB0: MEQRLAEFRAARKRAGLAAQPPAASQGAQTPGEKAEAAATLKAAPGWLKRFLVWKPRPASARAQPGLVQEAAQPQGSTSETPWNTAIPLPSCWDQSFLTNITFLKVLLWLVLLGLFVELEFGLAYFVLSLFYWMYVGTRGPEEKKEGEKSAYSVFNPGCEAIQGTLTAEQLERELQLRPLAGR
UniProt Q5VUM1: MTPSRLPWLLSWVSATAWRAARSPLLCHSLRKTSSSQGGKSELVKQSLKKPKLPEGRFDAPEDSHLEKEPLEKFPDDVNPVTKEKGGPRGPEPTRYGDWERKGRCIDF
UniProt O15027: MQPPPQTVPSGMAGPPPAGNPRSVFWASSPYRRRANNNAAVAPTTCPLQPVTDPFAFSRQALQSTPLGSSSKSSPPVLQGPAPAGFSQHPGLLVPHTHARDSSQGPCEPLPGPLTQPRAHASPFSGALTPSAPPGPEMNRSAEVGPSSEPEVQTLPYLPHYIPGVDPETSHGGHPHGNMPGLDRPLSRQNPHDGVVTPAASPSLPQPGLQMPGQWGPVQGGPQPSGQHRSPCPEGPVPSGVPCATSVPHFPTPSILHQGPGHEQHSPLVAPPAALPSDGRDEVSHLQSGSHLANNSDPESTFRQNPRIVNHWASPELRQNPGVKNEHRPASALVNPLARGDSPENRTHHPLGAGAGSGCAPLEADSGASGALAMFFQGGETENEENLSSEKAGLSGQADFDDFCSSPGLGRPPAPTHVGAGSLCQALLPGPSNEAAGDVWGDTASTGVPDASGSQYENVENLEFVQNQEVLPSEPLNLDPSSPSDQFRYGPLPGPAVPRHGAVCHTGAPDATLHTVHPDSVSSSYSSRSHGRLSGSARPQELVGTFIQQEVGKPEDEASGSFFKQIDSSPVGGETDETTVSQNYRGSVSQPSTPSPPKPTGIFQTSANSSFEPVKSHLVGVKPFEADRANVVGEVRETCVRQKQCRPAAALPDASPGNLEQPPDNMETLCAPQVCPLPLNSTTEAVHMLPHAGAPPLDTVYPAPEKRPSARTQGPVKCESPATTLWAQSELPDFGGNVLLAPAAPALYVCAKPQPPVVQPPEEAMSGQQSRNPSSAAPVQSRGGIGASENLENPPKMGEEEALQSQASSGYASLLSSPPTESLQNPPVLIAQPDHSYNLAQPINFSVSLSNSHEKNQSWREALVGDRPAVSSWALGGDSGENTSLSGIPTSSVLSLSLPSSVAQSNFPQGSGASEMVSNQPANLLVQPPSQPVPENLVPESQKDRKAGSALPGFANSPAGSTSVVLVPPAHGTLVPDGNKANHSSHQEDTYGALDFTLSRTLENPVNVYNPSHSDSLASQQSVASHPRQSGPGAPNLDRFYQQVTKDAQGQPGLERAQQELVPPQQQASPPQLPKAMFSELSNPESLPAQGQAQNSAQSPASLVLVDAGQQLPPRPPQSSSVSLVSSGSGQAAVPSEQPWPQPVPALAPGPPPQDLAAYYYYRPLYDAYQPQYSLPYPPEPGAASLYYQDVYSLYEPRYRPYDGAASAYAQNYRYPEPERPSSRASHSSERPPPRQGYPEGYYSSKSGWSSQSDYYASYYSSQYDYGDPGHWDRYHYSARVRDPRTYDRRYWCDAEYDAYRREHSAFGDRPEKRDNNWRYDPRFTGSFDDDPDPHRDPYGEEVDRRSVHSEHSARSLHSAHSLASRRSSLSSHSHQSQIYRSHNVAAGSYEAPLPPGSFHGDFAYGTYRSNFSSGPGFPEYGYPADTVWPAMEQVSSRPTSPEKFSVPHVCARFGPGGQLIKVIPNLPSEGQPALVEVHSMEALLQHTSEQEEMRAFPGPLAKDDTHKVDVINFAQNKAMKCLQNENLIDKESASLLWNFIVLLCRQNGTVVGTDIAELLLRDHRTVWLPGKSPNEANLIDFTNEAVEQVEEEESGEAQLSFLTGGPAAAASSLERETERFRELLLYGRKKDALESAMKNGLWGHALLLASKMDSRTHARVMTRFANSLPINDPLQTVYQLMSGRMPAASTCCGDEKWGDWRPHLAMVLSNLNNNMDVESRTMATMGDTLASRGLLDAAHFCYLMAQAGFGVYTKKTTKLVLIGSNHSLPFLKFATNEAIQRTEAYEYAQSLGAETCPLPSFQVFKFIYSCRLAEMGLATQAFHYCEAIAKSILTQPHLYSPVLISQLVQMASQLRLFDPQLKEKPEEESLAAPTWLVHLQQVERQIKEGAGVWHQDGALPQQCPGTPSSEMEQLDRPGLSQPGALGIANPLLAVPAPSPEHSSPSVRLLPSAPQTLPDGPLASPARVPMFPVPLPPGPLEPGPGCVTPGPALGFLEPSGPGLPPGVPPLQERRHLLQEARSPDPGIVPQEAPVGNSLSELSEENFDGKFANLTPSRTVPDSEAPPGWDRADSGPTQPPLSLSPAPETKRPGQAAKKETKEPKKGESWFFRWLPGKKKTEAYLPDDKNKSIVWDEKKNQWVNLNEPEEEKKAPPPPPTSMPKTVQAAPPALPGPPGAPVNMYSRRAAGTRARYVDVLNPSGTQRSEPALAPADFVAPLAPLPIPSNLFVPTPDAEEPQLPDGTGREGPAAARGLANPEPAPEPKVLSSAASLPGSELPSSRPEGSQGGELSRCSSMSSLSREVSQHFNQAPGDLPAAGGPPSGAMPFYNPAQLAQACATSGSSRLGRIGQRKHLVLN
UniProt Q96IW7: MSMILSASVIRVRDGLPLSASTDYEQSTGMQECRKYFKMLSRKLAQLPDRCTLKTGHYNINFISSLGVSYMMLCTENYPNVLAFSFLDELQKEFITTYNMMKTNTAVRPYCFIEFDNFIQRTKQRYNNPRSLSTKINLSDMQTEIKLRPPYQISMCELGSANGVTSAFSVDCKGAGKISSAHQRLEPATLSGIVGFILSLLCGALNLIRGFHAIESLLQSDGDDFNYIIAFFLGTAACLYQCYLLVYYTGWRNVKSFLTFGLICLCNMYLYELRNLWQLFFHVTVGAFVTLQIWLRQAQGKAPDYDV
UniProt Q96BU1: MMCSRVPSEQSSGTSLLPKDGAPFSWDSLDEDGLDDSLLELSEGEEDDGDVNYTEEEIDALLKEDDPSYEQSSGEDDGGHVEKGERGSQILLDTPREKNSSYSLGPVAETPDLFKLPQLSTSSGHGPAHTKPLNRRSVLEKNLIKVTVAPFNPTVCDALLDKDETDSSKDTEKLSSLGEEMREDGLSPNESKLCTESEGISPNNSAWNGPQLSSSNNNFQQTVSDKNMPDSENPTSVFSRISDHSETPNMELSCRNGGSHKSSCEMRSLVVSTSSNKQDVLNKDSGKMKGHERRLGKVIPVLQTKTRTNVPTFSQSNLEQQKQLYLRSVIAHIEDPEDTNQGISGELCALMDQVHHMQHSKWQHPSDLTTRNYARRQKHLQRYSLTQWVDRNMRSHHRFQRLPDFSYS
UniProt Q86SQ7: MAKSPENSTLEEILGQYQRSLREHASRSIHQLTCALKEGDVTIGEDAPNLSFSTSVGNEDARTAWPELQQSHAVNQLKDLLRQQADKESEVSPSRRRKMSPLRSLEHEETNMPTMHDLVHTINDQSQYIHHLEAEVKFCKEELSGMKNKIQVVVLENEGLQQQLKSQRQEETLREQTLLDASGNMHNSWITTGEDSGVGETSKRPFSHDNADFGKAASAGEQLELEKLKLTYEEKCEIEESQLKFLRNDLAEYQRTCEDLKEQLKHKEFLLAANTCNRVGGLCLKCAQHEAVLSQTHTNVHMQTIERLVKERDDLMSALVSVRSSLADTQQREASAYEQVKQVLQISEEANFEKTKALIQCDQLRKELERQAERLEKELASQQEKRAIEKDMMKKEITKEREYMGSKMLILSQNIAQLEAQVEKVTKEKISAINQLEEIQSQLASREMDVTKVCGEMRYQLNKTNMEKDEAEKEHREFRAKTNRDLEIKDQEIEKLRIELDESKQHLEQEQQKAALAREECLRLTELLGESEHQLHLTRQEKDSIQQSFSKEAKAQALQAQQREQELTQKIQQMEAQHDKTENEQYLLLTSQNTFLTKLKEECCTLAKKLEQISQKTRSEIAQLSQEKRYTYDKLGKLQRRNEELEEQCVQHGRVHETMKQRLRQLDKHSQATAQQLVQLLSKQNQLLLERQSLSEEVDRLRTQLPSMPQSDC
UniProt P57060: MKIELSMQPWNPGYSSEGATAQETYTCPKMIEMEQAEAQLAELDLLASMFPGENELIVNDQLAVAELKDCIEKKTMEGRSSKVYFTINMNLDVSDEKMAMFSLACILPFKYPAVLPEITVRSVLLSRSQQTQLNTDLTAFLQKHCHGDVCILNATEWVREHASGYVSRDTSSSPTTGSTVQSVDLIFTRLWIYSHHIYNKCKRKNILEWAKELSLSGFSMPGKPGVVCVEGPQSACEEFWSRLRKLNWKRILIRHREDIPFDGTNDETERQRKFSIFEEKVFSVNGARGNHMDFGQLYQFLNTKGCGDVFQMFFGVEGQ
UniProt Q9NRG7: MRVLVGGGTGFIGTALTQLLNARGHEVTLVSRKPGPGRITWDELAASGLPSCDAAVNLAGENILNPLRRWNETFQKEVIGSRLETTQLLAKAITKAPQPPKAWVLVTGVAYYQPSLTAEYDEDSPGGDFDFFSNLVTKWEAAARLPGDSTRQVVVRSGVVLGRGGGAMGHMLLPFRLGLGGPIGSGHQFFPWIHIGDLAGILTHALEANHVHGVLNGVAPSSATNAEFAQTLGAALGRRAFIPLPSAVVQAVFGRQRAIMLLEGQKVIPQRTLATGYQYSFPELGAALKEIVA

How the values were obtained:
Assay in all cases: log2 fold change, soluble protein after heating vs DMSO (PISA); higher = thermal stabilisation; K562 cells, 10 uM, 30 min; active = over 0.2 and 3.5 SD of the protein, either way, in both replicates (recomputed)
erlotinib = compound: C#Cc1cccc(Nc2ncnc3cc(OCCOC)c(OCCOC)cc23)c1 [erlotinib]
Outline: (§1)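 K562 cells at 2×10^6 cells/mL were treated with 10 μM compound for 30 min. Aliquots were heated for 3 min across 48°C-58°C, pooled, and extracted in PBS with 0.5% NP-40 at 4°C; soluble protein was the supernatant after 21,000xg for 90 min. Soluble protein was quantified by TMTpro 16plex LC-MS/MS with channel sums equalised, and reported as log2 fold change in thermal stability against DMSO controls, with values from duplicates.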

[1] = compound: C/C(=N\NC(=O)C1=CC(=CC=C1)S(=O)(=O)N2CCOCC2)/C3=C(C=CC(=C3)Cl)O
Outline: as §1

[2] = compound: C1=CC(=C(C=C1Cl)C2=NC3=NC=CN=C3C(=N2)NC4=CC=NC=C4)F
Outline: as §1

[3] = compound: C1=CC(=CC=C1C2=NC3=C(N2)C=C(C=C3)C(=O)N)OC4=CC=C(C=C4)Cl
Outline: as §1

[4] = compound: C1=CC2=C(C=CC(=C2)/C=C\3/C(=O)NC(=NCC4=CC=CS4)S3)N=C1
Outline: as §1

[5] = compound: C1=CC2=NC=CN=C2C=C1/C=C/3\C(=O)NC(=O)S3
Outline: as §1

[6] = compound: C1=CC=C(C=C1)C2=NC(=C(N2)C3=CC=NC=C3)C4=CC(=C(C=C4)Cl)O
Outline: as §1

[7] = compound: C1=CC=C2C(=C1)C3=NNC4=CC=CC(=C43)C2=O
Outline: as §1

[8] = compound: C1CCN(C1)C(=O)NC2=CC=CC(=C2)NC3=NC=C(C(=N3)NCCC4=CN=CN4)Br
Outline: as §1

[9] = compound: C1CN(CCC1(CC2=CC=C(C=C2)Cl)N)C3=NC=NC4=C3C=CN4
Outline: as §1

Target	log2 fold change (erlotinib)	log2 fold change [1]	log2 fold change [2]	log2 fold change [3]	log2 fold change [4]	log2 fold change [5]	log2 fold change [6]	log2 fold change [7]	log2 fold change [8]	log2 fold change [9]
SAR1A (UniProt Q9NR31)	inactive: 0.019	inactive: 0.069	inactive: 0.134	inactive: -0.044	inactive: -0.112	inactive: -0.002	inactive: 0.116	inactive: 0.022	inactive: 0.027	inactive: 0.018
RTN2 (UniProt O75298)	inactive: -0.008	inactive: 0.068	inactive: -0.14	inactive: 0.052	inactive: 0.021	inactive: 0.033	inactive: 0.037	inactive: -0.009	inactive: -0.055	inactive: 0.021
RWDD1 (UniProt Q9H446)	inactive: 0.017	inactive: 0.053	inactive: -0.001	inactive: -0.011	inactive: 0.024	inactive: 0.047	inactive: 0.056	inactive: -0.029	inactive: 0.001	inactive: -0.009
SDCBP (UniProt O00560)	inactive: -0.048	inactive: -0.1	inactive: -0.058	inactive: 0.047	inactive: -0.036	inactive: -0.008	inactive: 0.034	inactive: 0.002	inactive: -0.021	inactive: -0.045
RTRAF (UniProt Q9Y224)	inactive: -0.02	inactive: -0.021	inactive: -0.126	inactive: -0.075	inactive: 0.019	inactive: 0.026	inactive: -0.077	inactive: 0.01	inactive: 0.042	inactive: -0.077
SEC23B (UniProt Q15437)	inactive: -0.013	inactive: 0.091	inactive: 0.018	inactive: -0.044	inactive: -0.002	inactive: 0.03	inactive: 0.046	inactive: -0.01	inactive: -0.016	inactive: 0.007
SCAMP3 (UniProt O14828)	inactive: 0.036	inactive: -0.056	inactive: -0.006	inactive: -0.01	inactive: -0.005	inactive: 0.041	inactive: -0.001	inactive: -0.037	inactive: 0.03	inactive: 0.068
RRP9 (UniProt O43818)	inactive: 0.018	inactive: -0.04	inactive: -0.099	inactive: -0.004	inactive: -0.042	inactive: 0.03	inactive: -0.114	inactive: -0.085	inactive: -0.081	inactive: -0.016
SACS (UniProt Q9NZJ4)	inactive: 0.095	inactive: 0.069	inactive: -0.074	inactive: -0.172	inactive: -0.156	inactive: 0.245	inactive: 0.077	inactive: 0.043	inactive: 0.027	inactive: -0.185
SEC11C (UniProt Q9BY50)	inactive: -0.004	inactive: -0.012	inactive: -0.046	inactive: -0.04	inactive: 0.082	inactive: 0.031	inactive: 0.023	inactive: -0.051	inactive: -0.016	inactive: -0.069
SCAF4 (UniProt O95104)	inactive: 0.153	inactive: -0.012	inactive: 0.052	inactive: 0.001	inactive: -0.015	inactive: 0.045	–	inactive: -0.007	inactive: -0.033	inactive: -0.074
SAP30 (UniProt O75446)	inactive: -0.04	inactive: 0.061	inactive: -0.069	inactive: -0.027	inactive: 0.018	–	–	inactive: -0.13	–	–
SBDS (UniProt Q9Y3A5)	inactive: 0.047	inactive: 0.086	inactive: 0.036	inactive: -0.038	inactive: 0.053	inactive: 0.027	inactive: 0.033	inactive: 0.076	inactive: 0.029	inactive: -0.064
SAYSD1 (UniProt Q9NPB0)	inactive: -0.004	–	inactive: -0.003	inactive: -0.003	–	inactive: -0.098	–	–	–	–
S100A2 (UniProt P29034)	inactive: 0.711	inactive: -0.465	–	inactive: -0.651	inactive: 0.19	inactive: -0.093	–	inactive: 0.084	inactive: -0.014	inactive: 0.431
SDHAF4 (UniProt Q5VUM1)	inactive: 0	inactive: 0.104	inactive: 0.026	inactive: 0.031	inactive: 0.118	inactive: 0.033	–	inactive: -0.117	inactive: 0.054	inactive: 0.094
SEC16A isoform 5 (UniProt O15027)	inactive: 0.126	inactive: -0.143	inactive: -0.064	inactive: 0.015	inactive: 0.153	inactive: -0.018	inactive: 0.044	inactive: 0.069	inactive: 0.06	inactive: 0.017

Target	log2 fold change (erlotinib)	log2 fold change [1]	log2 fold change [2]	log2 fold change [3]	log2 fold change [4]	log2 fold change [5]	log2 fold change [6]	log2 fold change [7]	log2 fold change [8]	log2 fold change [9]
SEC22A (UniProt Q96IW7)	inactive: 0.014	inactive: 0.029	–	inactive: -0.083	inactive: 0.083	inactive: 0.013	inactive: 0.002	inactive: -0.068	inactive: 0.029	inactive: -0.01
S100PBP (UniProt Q96BU1)	inactive: 0.103	inactive: -0.094	inactive: -0.049	inactive: 0.022	inactive: 0.098	inactive: 0.159	inactive: -0.106	inactive: -0.13	inactive: -0.057	inactive: -0.044
SDHAF3 (UniProt Q9NRP4)	inactive: 0.003	inactive: 0.056	inactive: 0.024	inactive: -0.012	inactive: 0.033	inactive: 0.081	inactive: -0.129	inactive: -0.044	inactive: 0.053	inactive: 0
SDCCAG8 (UniProt Q86SQ7)	inactive: 0.237	inactive: -0.082	–	inactive: 0.005	inactive: 0.108	–	–	inactive: 0.039	inactive: 0.061	inactive: 0.105
SAMSN1 isoform 3 (UniProt Q9NSI8)	inactive: 0.027	inactive: 0.012	inactive: -0.006	inactive: 0.001	inactive: 0.037	inactive: 0.021	inactive: -0.009	inactive: -0.022	inactive: 0.007	inactive: -0.114
RWDD2B (UniProt P57060)	inactive: 0.141	inactive: 0.091	–	inactive: 0.085	inactive: 0.135	–	inactive: -0.002	inactive: -0.128	–	–
S100A14 (UniProt Q9HCY8)	inactive: 0.404	inactive: -0.164	–	inactive: -0.892	inactive: 0.069	inactive: -0.364	inactive: -0.136	inactive: -0.191	inactive: -0.056	inactive: -0.531
RTN4 isoform 5 (UniProt Q9NQC3)	inactive: 0.342	inactive: -0.023	inactive: -0.049	inactive: 0.041	inactive: -0.004	–	inactive: -0.01	inactive: -0.056	inactive: 0.005	inactive: 0.09
SDR39U1 (UniProt Q9NRG7)	inactive: 0.855	inactive: 0.127	inactive: 0.376	inactive: 0.172	inactive: 1.03	inactive: -0.003	–	inactive: 0.143	inactive: 0.643	inactive: 0.202
S100A4 (UniProt P26447)	inactive: -0.065	inactive: -0.137	–	inactive: 0.084	inactive: 0.167	–	inactive: 0.015	inactive: -0.164	–	–
SDHAF2 (UniProt Q9NX18)	inactive: -0.021	active: 0.304	inactive: 0.083	inactive: 0.018	inactive: -0.102	inactive: 0.051	inactive: -0.035	inactive: 0.114	inactive: 0.068	inactive: -0.091
SCFD2 (UniProt Q8WU76)	inactive: 0.121	inactive: 0.034	inactive: -0.221	inactive: -0.033	inactive: 0.013	inactive: 0.016	inactive: 0.094	inactive: -0.048	inactive: -0.011	inactive: -0.042
SCPEP1 (UniProt Q9HB40)	inactive: -0.002	inactive: 0.017	inactive: 0.064	inactive: 0.015	inactive: -0.024	inactive: 0.058	inactive: -0.013	inactive: 0.017	inactive: -0.012	inactive: 0.079
SASH1 (UniProt O94885)	inactive: -0.013	inactive: 0.12	inactive: 0.145	inactive: -0.01	inactive: -0.104	inactive: -0.009	inactive: 0.005	inactive: 0.107	inactive: -0.041	inactive: -0.079
SCD (UniProt O00767)	inactive: 0.022	inactive: -0.256	inactive: 0.143	inactive: -0.008	inactive: 0.024	inactive: 0.04	inactive: -0.059	inactive: -0.006	inactive: 0.126	inactive: 0.023
SDHB, A0A087WXX8	inactive: 0.155	inactive: -0.148	–	inactive: -0.103	inactive: 0.149	inactive: 0.121	inactive: -0.099	inactive: -0.098	–	–

Whole records as entered above. Values in the order: log2 fold change (erlotinib)	log2 fold change [1]	log2 fold change [2]	log2 fold change [3]	log2 fold change [4]	log2 fold change [5]	log2 fold change [6]	log2 fold change [7]	log2 fold change [8]	log2 fold change [9]
RTRAF (UniProt Q9Y224) as listed: inactive: -0.02	inactive: -0.021	inactive: -0.126	inactive: -0.075	inactive: 0.019	inactive: 0.026	inactive: -0.077	inactive: 0.01	inactive: 0.042	inactive: -0.077
RRP9 (UniProt O43818) as listed: inactive: 0.018	inactive: -0.04	inactive: -0.099	inactive: -0.004	inactive: -0.042	inactive: 0.03	inactive: -0.114	inactive: -0.085	inactive: -0.081	inactive: -0.016
